In patent US12062422B2, “System, method and computer-accessible medium for use of heavy water as a probe for imaging metabolic activities” (The Trustees of Columbia University in the City of New York, priority 2018, dated 2024):

Legend:
Assay type in all cases: in vivo
sebaceous glands = test: DO-SRS imaging of sebaceous glands of mice drinking D2O
C. elegans = test: DO-SRS imaging of lipogenesis in C. elegans; details: for CDL/CHL ratio: 20% D2O plates
mice = test: Protein synthesis tracking in mice, D2O versus D-AAs via drinking water; details: 25% D2O or 2 mg/ml of D-AAs via drinking water, 8 days
[1] = extrapolated detection limit, SRS at 2135 cm^−1

Structure (SMILES): [2H]O[2H] [D2O, deuterium oxide]
- CDL/CHL ratio (sebaceous glands; 3-month old mice, 25% D2O, day 26): approximately 0.2
- D2O administration needed for S/N higher than 2 (sebaceous glands; [1]): 0.3%
- D2O administration sufficient for signal-to-noise ratio (S/N) of 10 (sebaceous glands; [1]): 1.4%
- C-D signals in sebaceous glands (sebaceous glands; mice, 4% D2O as drinking water): easily detectable C-D signals
- increase in C-D signal compared to mice drinking 4% D2O (sebaceous glands; mice, 25% D2O as drinking water): 6 fold
- CDL/CHL ratio (C. elegans; animals fed on D-labeled bacteria): approximately 22.3%
- CDL/CHL ratio (C. elegans; animals fed on non-labeled bacteria): approximately 3.1%
- CDL signal compared to 4 mM deuterated palmitic acid (C. elegans; 20% D2O treatment): over two-fold stronger CDL signal
- CDP signal in digestive tract and liver (mice): much stronger signal
- CDP signal in hippocampus, cortex, muscle and thymus (mice): strong CD signal
